Data taken from the supplement of paper PMC10338343.
± gives the standard deviation. Only a part is listed here, and it is no random draw. The uncertainty is large for many entries.

system: MILI (PIWIL2) piRISC loaded with piRNA #1 (26 nt); assay: pre-steady-state target cleavage rate (min^-1); MIWI and MILI are mouse PIWI proteins and EfPiwi is from a freshwater sponge; tags in brackets are library labels; higher = faster piRNA-guided slicing of the target; conditions: guide: piRNA #1 5'p-UGAGGUAGUAGGUUGUAUAGUAUCCA; auxiliary factor: 500 nM mouse GTSF1
How it was run: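 A transcribed, DNA-blocked target RNA library […] was incubated at 33 °C for 0–8 or 0–960 min with 1 nM active affinity-purified piRISC carrying one synthetic guide, in HEPES–potassium acetate buffer with or without 500 nM GTSF1 partner protein. Uncleaved targets were then sequenced and normalised to depth and to weakly complementary targets. Data from three trials were pooled, with k3 capped at 0.0001 min^-1, and a burst-and-steady-state fit yielded the pre-steady-state cleavage rate.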
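Note: 1 nM active piRISC with 0.1 nM target library at 33 °C single turnover.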

Row | Sequence | pre-steady-state target cleavage rate
1 | GGAGACCUAUGAUAUCAACCUACUAGGAGA [g6:g15:cont:t1A] | 0.000427 ± 0.011
2 | GGAGACGAUACUAUACUACCUAGUACCUCA | 0.0742 ± 0.015
3 | GGAGACCUAACUAUACAACUCUACUACCUCA | 0.000134 ± 0.046
4 | GGAGAGGAUACUAUACAACCUAGAACCUCA | 0.00128 ± 0.0057
5 | GGAGACCUAUGAUAUCUACCUACUACCUGA | < 0.0001
6 | GGAGACCUAUGAUAUGAACUUACUACCUCA | 0.00034 ± 0.013
7 | GGAGACCUAUGAUAUGUACCUACAACCUCA | 0.000104 ± 0.019
8 | GGAGACCUAUGAUAACAACUCUACUACCUCA | 0.000133 ± 0.022
9 | GGAGAGGAUAGUAUACAACCAACUACCUCA | 0.00282 ± 0.0036
10 | GGAGACCUUACUAUACAACCAAGUACCUCA | 0.0031 ± 0.0035
11 | GGAGAGGAUACUAUACAACCUACUACCAGA | 0.0384 ± 0.0076
12 | GGAGACCUAUGAUAUGAACCUACUAACCUCA | 0.000101 ± 0.021
13 | GGAGACCUAACUAUACAAGCUAGUACCUCA | 0.0871 ± 0.019
14 | GGAGUGGAUACUAAACAACCUACUACCUCA | 0.168 ± 0.0092
15 | GGAGACGAUACUUUACAAGCUACUACCUCA | 0.235 ± 0.015
16 | GGAGACCUAUGAUAACUAACCUACUACCUCA | 0.000803 ± 0.0096
17 | GGAGACCUAUCUAUACAACCUACUACCUACA | 0.0858 ± 0.015
18 | GGAGACCUAUCUAUAGAACCAACUACCUCA | 0.000752 ± 0.0041
19 | GGAGACCUAUGAUUACAACCUUGAACCUCA | 0.000172 ± 0.019
20 | GGAGACGAUACUAUACAACCUACAAGCUCA | 0.0171 ± 0.0086

Given as a markdown table: entries from further up

| Row | Sequence | pre-steady-state target cleavage rate |
| --- | --- | --- |
| 8 | GGAGACCUAUGAUAACAACUCUACUACCUCA | 0.000133 ± 0.022 |
| 9 | GGAGAGGAUAGUAUACAACCAACUACCUCA | 0.00282 ± 0.0036 |
| 10 | GGAGACCUUACUAUACAACCAAGUACCUCA | 0.0031 ± 0.0035 |
| 11 | GGAGAGGAUACUAUACAACCUACUACCAGA | 0.0384 ± 0.0076 |
| 12 | GGAGACCUAUGAUAUGAACCUACUAACCUCA | 0.000101 ± 0.021 |
| 13 | GGAGACCUAACUAUACAAGCUAGUACCUCA | 0.0871 ± 0.019 |
| 14 | GGAGUGGAUACUAAACAACCUACUACCUCA | 0.168 ± 0.0092 |
| 15 | GGAGACGAUACUUUACAAGCUACUACCUCA | 0.235 ± 0.015 |
| 16 | GGAGACCUAUGAUAACUAACCUACUACCUCA | 0.000803 ± 0.0096 |

Next entries follow.

Row | Sequence | pre-steady-state target cleavage rate
21 | GGAGACCUAUGAUAUGAAGCUACUAGCUCA | 0.000259 ± 0.02
22 | GGAGACCUUACUAUACAACCUACGACCUCA | 0.113 ± 0.012
23 | GGAGACCUAUGAUAUCAACCUACUAGCACA | 0.000179 ± 0.013
24 | GGAGACCUAUGAUAUGUUGCAACUUCCUCA | 0.000105 ± 0.021
25 | GGAGUGGUUACUAUACAACCUACUACCUCA | 0.186 ± 0.0089
26 | GGAGACCUAUGAUAUCAACCUACUUGGAGA [g7:g15:cont:t1A] | 0.000106 ± 0.022
27 | GGAGACCUAUGAUAUGUACCUUGUACCUCA | 0.000114 ± 0.029
28 | GGAGACCUAUGAUAUGUACUCUACUACCUCA | < 0.0001
29 | GGAGACCUAUGAUAUCAACCUACUACCAGA [g4:g15:cont:t1A] | 0.000755 ± 0.0072
30 | GGAGACCUAUGAAUAGAACCAACUACCUCA | 0.000386 ± 0.01
31 | GGAGACCUUACUAUACAACCUUCAACCUCA | 0.00437 ± 0.003
32 | GGAGAGGAUACUAUACAACCUUCUAGCUCA | 0.00136 ± 0.0037
33 | GGAGACCAAACUAUACAACCUUCUACCUCA | 0.00275 ± 0.0079
34 | GGAGUGGAAACAAUACAACCUACUACCUCA | 0.184 ± 0.018
35 | GGAGACCAUACUAUACAACCUAGUACCUCA | 0.0657 ± 0.013
36 | GGAGACCUAACUAUACAACCUAGUACGUCA | 0.00131 ± 0.0098
37 | GGAGACCUACCUAUACAACCUACUACCUCA | 0.117 ± 0.026
38 | GGAGACCUUAUAUACAACCUACUACCUCA | 0.0314 ± 0.0072
39 | GGAGACCUAUGAUAUGUUGCUUGAACCUCA | < 0.0001
40 | GGAGACCUUACUAUACAACCUACUACCAGA | 0.107 ± 0.017
